Literature values in patent publication US20190351069A1, “Coating of Nanoparticle Surfaces with Cyclopeptides for Improving Delivery of Agents Via the Oral Route” (Ruprecht-Karls-Universität Heidelberg, priority 2016, published 2019).
Some entries share one result that the patent states for a list of compounds.

Conditions: comparison values; cited from earlier work

## COc1cccc2c1C(=O)c1c(O)c3c(c(O)c1C2=O)C[C@@](O)(C(=O)CO)C[C@@H]3O[C@H]1C[C@H](N)[C@H](O)[C@H](C)O1 [Doxorubicin]
  encapsulation efficiencies obtained for other drugs: 40 to 70%
